# Data: PubChem BioAssay AID1347423 (Functional Genomics Laboratory (NCATS/FGL), 2020)
# The campaign covered roughly 52,000 sequences. About 210 (0.4%) were called active.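 How the source made its calls: active means gene whose silencing raises cell survival under the drug, median off-target-corrected z-score across its silencing RNAs 2 or more; inactive means the rest.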 The list shows a part of the results.
# Experiment: Resistance to Poly (ADP-Ribose) Polymerase inhibitor: Gene Identification via Genome-wide siRNA Screen
# Details: mouse BRCA2 R2336H ES cells, olaparib, CellTiter-Glo viability; stronger effect = higher value
# Summary of the method: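 Genome-wide siRNA screen (3 siRNAs/gene, 20 nM) in mouse ES cells carrying hypomorphic BRCA2 R2336H; olaparib 500 nM added 48 h post-transfection, CellTiter-Glo viability 72 h later. Normalized to plate-median negative control; MAD z-scores, gene median, seed-adjusted.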
row,Sequence,z-score
1,GGGAGACUUCGAAUAUUUATT against BC022133,inactive: -0.222
2,GGACUUAUUUCUUUAAGGATT against Mmp17,inactive: -0.571
3,GCUUAAGCCGGGUAAUAUCTT against Ccl6,inactive: -0.755
4,GGAAUUUCUUCUCUAUGUGTT against D630002G06,inactive: 0.135
5,GCGAUUCAAACUUAUUCGATT against Pcdhb15,inactive: 0.749
6,GCCAUAGAAAGGAUUCAUATT against Epb4.1l4a,inactive: -0.65
7,GGAAAUAAAGUCCAUAGAATT against B3gnt3,inactive: 0.555
8,GCAUGUAGACUACAACGUGTT against Myoz1,inactive: 0.365
9,GCAAAUGCACACUCUAGGATT against Ptprn2,inactive: -0.322
10,GCAAUCGACCGCAUCCUAATT against B130050K08,inactive: 1.09
11,GCAUGUGAUUACCUUUGUATT against 1110056N09Rik,inactive: 0.641
12,GGUUUUGUAAUGUACAAACTT against Tada3l,inactive: 1.18
13,GGUUGAAGUGUGUUGCUUUTT against Atp13a,inactive: -0.651
14,GGCAAAAAAACACAAAGGCTT against E130320D18,inactive: -1.83
15,GGAUUUCCUGGAAAAUUCCTT against Siat8a,inactive: 0.62
16,GCCGUAUGUUGAUAUCUACTT against Ms4a1,inactive: 0.0544
17,GGUUGUAUUGAGGUCAAGGTT against Olfr1462,inactive: 0.689
18,GGCUCACGCUCGUUACCUATT against A230063L24Rik,inactive: -1.45
19,GCAGAUGCAUGAGAAAUCGTT against Agtrl1,inactive: 2.16
20,GCUGGUUUUGAACUGUACATT against Flt4,inactive: -0.909
21,GGAUAGUCAGAAAUGGAAATT against 2310010I16Rik,inactive: 1.21
22,GGCUAAUGGACAAAAAAUUTT against 4933428G09Rik,inactive: -0.819
23,GCCGAACAUACUGAACUGCTT against B2m,inactive: -0.175
24,CCUUGCUUAUUAGUCAAGUTT against 2610036D13Rik,inactive: -0.728
25,CGCCCGAAGCAAUAAAGAGTT against Rpl28,inactive: 1.15
26,GGCUAGCUAACUAUCUCUGTT against 9230105I15Rik,inactive: 0.89

# Given with bars between the fields: entries from further up.
row | Sequence | z-score
4 | GGAAUUUCUUCUCUAUGUGTT against D630002G06 | inactive: 0.135
6 | GCCAUAGAAAGGAUUCAUATT against Epb4.1l4a | inactive: -0.65
9 | GCAAAUGCACACUCUAGGATT against Ptprn2 | inactive: -0.322
10 | GCAAUCGACCGCAUCCUAATT against B130050K08 | inactive: 1.09
11 | GCAUGUGAUUACCUUUGUATT against 1110056N09Rik | inactive: 0.641
17 | GGUUGUAUUGAGGUCAAGGTT against Olfr1462 | inactive: 0.689
19 | GCAGAUGCAUGAGAAAUCGTT against Agtrl1 | inactive: 2.16

# Going on with the list:

row,Sequence,z-score
1,GCAUAGCCACAAGGUUAAUTT against 1700019G17Rik,inactive: 0.378
2,CCGCUAGACAAAUUUUGCCTT against Slc6a2,inactive: 0.489
3,CGUUUGUGGUUAAGGUAGATT against Sh2bpsm1,inactive: 1.43
4,UGAUUGUCCUUACAAUGGUTT against Olfr1065,inactive: -0.19
5,CGAUUUAAACAUGGAAUUCTT against 5730405I09Rik,inactive: 1.56
6,GCCUUAGAACUCCUCAUUCTT against 0610008C08Rik,inactive: 0.0492
7,GGCAAAAAGUAUUCUGAAGTT against 4921529O18Rik,inactive: 0.884
8,GGUUACUCCUUUUUAUGUATT against Rex3,inactive: 0.138
9,CCUAUUGCUGCCCUCAAGATT against Irf2bp1,inactive: -2.17
10,GGUAGAGCGCAAGAAGGCATT against C78541,inactive: -1.89
11,GGCUGGUGUAAAAGACACGTT against BC047219,inactive: 1.58
12,GGUGUGCUGUGUAAGGGAGTT against Inpp5b,inactive: 1.39
13,GGAGUUACUGACUAAGAACTT against Prlpe,inactive: 0.319
14,GGCUAAAUAUGUGAUUAGUTT against Maob,inactive: 1.67
15,CGGGAUCUAUCCACUGAUGTT against BC011468,inactive: 0.00812
16,GGCAACUGUUGGAUUGAUUTT against Catnb,inactive: 0.86
17,CCUUGUAAGUGAGAUCCGATT against Olfr118,inactive: -0.695
18,CCAAAUGAAAUUAGUCCUCTT against Eif5,inactive: -1.09
19,GCUAACUGCUACUAAAAUATT against Ndph,inactive: -2.38
20,GGACCCAACCUCAAUGAAATT against Arfip2,inactive: 1.52
21,GGAGUUUUGAAUAACAGCUTT against Ntn3,inactive: 0.929
22,GGAUCUAGAAAUGGUUAAGTT against Evpl,inactive: -0.722
23,GGACUUAUGGCAUUAGAAUTT against Nup88,inactive: -2.73
24,GGUGAUUGAAGUUUGUGAGTT against D230025D16Rik,inactive: 0.387
25,GGUAUGCACUCACACCAGATT against Mus81,inactive: -1.78
26,GGACCCUGAAGGAGCUGAATT against Per2,inactive: -1.32

row,Sequence,z-score
1,GGAACCAAUCGGGAUUUUGTT against B330016D10Rik,inactive: 0.0402
2,GUCUCAAGUGGACUGUGAGTT against Ngfa,inactive: -0.74
3,GGUCUUAGAUAUUUUAGGCTT against Pbef1,inactive: 0.398
4,GGACAUGACAUUUUUACGCTT against Cyp4f16,inactive: 0.822
5,GGAGGAGGAAAAGACUUUUTT against Pdzk2,inactive: -0.907
6,GGCUGAGUUAUUUGUGACATT against Syt13,inactive: 0.13
7,GGGCUUUAAUUCACAGAGCTT against Ticam2,inactive: -0.653
8,GGUGGACAAGGAGAGGACUTT against H2-Q1,inactive: -0.31
9,GGGAAUCUGGAAGACACCATT against Hap1,inactive: 0.0223
10,CGACUUUAAUUCCAAUCCUTT against 1810014L12Rik,inactive: 0.192
11,GGUUACCUGAGGUCAGUAGTT against Ifi1,inactive: -2.31
12,GCCUAGACAAUGGUGACCUTT against Nsfl1c,inactive: -0.792
13,GGAUCAUUUCUGGUGAUAATT against Map3k8,inactive: -0.149
14,GCAAUAUGUAUGUUAGUCUTT against Olfr1241,inactive: 0.434
15,GCAACGUGUAUUUAAAGACTT against Nrd1,inactive: 0.769
16,GGUCUUUCAAUAAAGAGAATT against Supt5h,inactive: -0.0124
17,GGGUGAGCGACAGAUGUCATT against Plcz1,inactive: -2.37
18,GCUAGUCUUAUGGACCAGATT against Eaf2,inactive: -0.544
19,GGGAAUCAUUAACAGCUUGTT against Hectd2,inactive: -0.85
20,GGUCAAAGUAGGUAAAGAATT against Snx2,inactive: -0.783
21,CCAGAGAGAUACCUGAUCUTT against Tas2r113,inactive: -2.7
22,GGGACAUGAUUUUGAACUUTT against Pfkfb2,inactive: 0.845
23,CGAUCAUUAAGCAAGUGAUTT against D930038M13Rik,inactive: 0.00691
24,GGAACCUAGAAGUUUUCUATT against 1700081D17Rik,inactive: 0.79
25,GCACAUUCGAUAUGCAACATT against Cops3,inactive: -1.78
26,GGUGAGAAGACCAUUGAUUTT against Insr,inactive: 1.23

row,Sequence,z-score
1,GGAAGUGUUCCGUUUUGCUTT against 6530402N02Rik,inactive: 1.89
2,GCUGUAAACCGAAUCAAAGTT against 2810403A07Rik,inactive: -0.388
3,GGUGGAAGCACAGAGUUGCTT against Prdm15,inactive: 2.19
4,GGCAGUGCAAGCCUUCAUGTT against Emp1,inactive: -0.0058
5,GGAUGGAGAGAUAAGAAAATT against 4933403M22Rik,inactive: -0.715
6,GGAACCAUGGACCUUAAUUTT against Rbm4,inactive: 0.0394
7,GCGCGAUCACAUUCUUUAGTT against 4921522P10Rik,inactive: 1.14
8,GGAACUUAACUAUUGCACUTT against Hs3st1,inactive: -0.0559
9,CCACAUUCCUCAUUCUGUATT against Vars2l,inactive: -0.0608
10,CCAAGGUAUGAAGAUAUUUTT against Rfpl4,inactive: 0.167
11,GGCUUCUUAUUGAUGUUGGTT against Asb13,inactive: 0.989
12,GGAAGAUCCGCUUCAACGUTT against 2310007B03Rik,inactive: 0.608
13,GGACUCUUGGAACUAUUCUTT against Kcnma3,inactive: 0.56
14,GGCUAAGAUAAGAAAUGCUTT against AI839562,inactive: 3.06
15,GGACAAAGAAUCCAAAAUATT against Etv6,inactive: -0.976
16,GCCUCAUUAGUUAAUAUUCTT against Ppp1r8,inactive: 1.13
17,GGUACUGUCCAAGAAGCCGTT against Ankmy2,inactive: 1.84
18,CCUAAUGUUUAGAUCCAUATT against Gcm2,inactive: 0.24
19,CCACGCAACUAUAAGCUGCTT against B3gat1,inactive: 1.71
20,GGAGCUGACCUAUCUCAAGTT against 4631426H08Rik,inactive: 1.11
21,GGUCAUGCAAGACAAGAUCTT against E430036I04Rik,inactive: -0.271
22,GCACCGACCACCAAAUCUATT against Muc10,inactive: -1.36
23,GGCUGCUACUUCAGACAGCTT against Pou6f2,inactive: -0.51
24,CGCAUCUCUAUCCACACUUTT against 1700010H15Rik,inactive: 0.262
25,GGUAUUAAACACCAGCUCUTT against Nsfl1c,inactive: 0.0649
